Assay results reported in US9487561B2, “Biologically active complex and its preparation” (HAMLET PHARMA AB, priority 2010, dated 2016).
For at least one compound, name, drawing or mass did not settle the structure.

Assays:
[1] = system: lung carcinoma, kidney carcinoma and lymphoma cells; experiment: HAMLET-induced change in cell morphology (light microscopy, real-time imaging); assay type: cell-based
Method: (§1) Cells were detached from cell culture flasks with versen (0.2 g EDTA in 200 ml H2O and 800 ml PBS), washed with PBS and resuspended in serum-free RPMI-1640. HAMLET dissolved in PBS was incubated with cells (0.5×10^6/ml for A549, A498 and HeLa cells; 1×10^6/ml for Jurkat) at 37° C. FCS was added after 1 hour. Cell death was quantified by trypan blue exclusion (Chroma Gesellschaft Schmid & Co) or by measuring ATP levels (ATPlite Kit, PerkinElmer, Infinite 200, Tecan). Light images were captured using the HOLOMONITOR™ M2 digital holographic microscope (Phase Holographic Imaging AB, Lund, Sweden).
For live cell imaging, cells were pre-treated with SB202190 for 30 minutes, nuclei were stained with Hoechst 33342 (Invitrogen) and Alexa-Fluor 568-labeled HAMLET (10% labeled HAMLET, Molecular Probes) was added in serum-free medium. FCS was added after 1 hour. Fluorescence was detected with pinhole settings corresponding to 1 airy unit. The cells were kept at 37° C., 5% CO2 and examined unfixed by LSM510 DUO confocal microscopy (Carl Zeiss).
To examine if the HAMLET-induced change in carcinoma cell morphology was modified by the channel inhibitors, lung carcinoma, kidney carcinoma and lymphoma cells were exposed to HAMLET in the presence or absence of ion channel inhibitors and examined by light microscopy (FIG. 2C). […]

[2] = system: A549 lung carcinoma cells; experiment: cell death assay (trypan blue exclusion, ATP levels); assay type: cell-based, human; conditions: 30 minutes pretreatment, HAMLET three hours
Method: as §1
For studies with inhibitors, cells were pretreated for 30 minutes. Inhibitors used were Gadolinium chloride (GdCl3, 100 μM), Barium chloride (BaCl2, 1 mM), Ruthenium red (30 μM), tetrandrine (10 μM) and amiloride (1 mM), all from Sigma Aldrich. For p38 inhibition, SB202190 (20 μM, Sigma Aldrich) or BIRB796 (10 μM, Axon Medchem) dissolved in DMSO was used. The wells were washed twice with PBS and new medium with inhibitor was added. […]
A549 cells were seeded to a density of 0.8-1.0×10^6 cells/well in RPMI without FCS. […] The cells were then further incubated for additional 2 hours before the viability were determined by trypan blue exclusion and ATP measurements.

SMILES: COc1ccc2cc1Oc1ccc(cc1)C[C@H]1c3cc(c(OC)cc3CCN1C)Oc1c(OC)c(OC)cc3c1[C@H](C2)N(C)CC3 [tetrandrine, 6,6′,7,12-tetramethoxy-2,2′-dimethyl-1beta-berbaman]
- effect of ion channel inhibitor on HAMLET-induced change in cell morphology [1]: did not prevent the morphological changes
- effect of channel inhibitor on HAMLET-induced cell death [2]: no effect on viability
